Earlier results in US20110208161A1, “INT[…] […] TO THE CENTRAL NERVOUS SYSTEM” (priority 2009, published 2011).

Details: administration to the lateral ventricle, dose 0.01 mg/kg; patients with severe intractable cancer pain

SMILES: CN1CC[C@]23c4c5ccc(O)c4O[C@H]2[C@@H](O)C=C[C@H]3[C@H]1C5.Cl [morphine hydrochloride]
- duration of analgesic effect: about 24 hours
